According to patent publication EP4772528A1, “PEPTIDE HAVING ACTIVITY OF SKIN WHITENING AND USES THEREOF” (Caregen Co., Ltd., priority 2023, dated 2026):
Not every detail of the peptide structures is certain; ends, links or a residue may be inferred. Where no end group is shown, it is not given here.

Columns and labels:
Type in all cases: cell-based, human
[1] = test system: PAR2 (protease-activated receptor 2) gene; assay: Expression analysis of PAR2 mRNA (RT-PCR) in trypsin-treated keratinocytes; conditions: HaCaT cells; peptide 10 µM, 50 µM, 100 µM and 200 µM for 24 hours, then 4 units of trypsin for 16 hours; mRNA normalized to GAPDH; FIG. 2
HaCaT cells [2] = assay: Absorption by melanosome phagocytosis (melanin content) in keratinocytes; conditions: peptide 100 µM and 200 µM, 24 hours, then 10 µg/ml melanosomes isolated from B16F10 cells for 48 hours; melanin content by absorbance at 490 nm; FIG. 1
HaCaT cells [3] = assay: Trypsin-induced phagocytosis, microsphere absorption (uptake), confocal fluorescence; conditions: peptide 50 µM, 100 µM and 200 µM pretreated 1 hour, then 4 U/mL trypsin and microspheres for 24 hours, FIGs. 4A and 4B
[4] = test system: KGFR (Keratinocyte growth factor receptor) gene; assay: Expression analysis of KGFR mRNA (RT-PCR) in keratinocytes; conditions: HaCaT cells; peptide 10 µM, 50 µM, 100 µM and 200 µM for 6 hours; mRNA normalized to GAPDH; FIG. 3

“HSDAV [peptide of Preparation Example 1, HSDAV (His-Ser-Asp-Ala-Val)]” was tested, and the “expression level of PAR2” value [1] was “decreased again”, the “absorption (uptake) of melanosomes in HaCaT cells” value (HaCaT cells [2]) was “inhibited” and the absorption of microspheres (HaCaT cells [3]) was “reduced”. The “expression of the KGFR gene” value [4] was “reduced in a concentration-dependent manner”.
